These results are taken from patent US6399759.

The target of this experiment is T1, Soli E2 (Solenopsis invicta).
T1 sequence: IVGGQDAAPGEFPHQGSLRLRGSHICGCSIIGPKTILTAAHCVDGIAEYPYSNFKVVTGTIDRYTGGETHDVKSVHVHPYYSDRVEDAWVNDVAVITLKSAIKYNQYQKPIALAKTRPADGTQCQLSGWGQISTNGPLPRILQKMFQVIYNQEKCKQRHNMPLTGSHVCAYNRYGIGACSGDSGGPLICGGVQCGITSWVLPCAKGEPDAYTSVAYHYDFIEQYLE
Kind of experiment: inhibition of amidolytic activity, 0.02-50 nM inhibitor, 1.0 nM enzyme.

Results are given in words; binding and its absence hold for the method and conditions named.

B1: Lima Bean Trypsin Inhibitor (protein, UniProt P01056 1-83, looked up)
chain: SGHHEHSTDZPSZSSKPCCBHCACTKSIPPQCRCTDLRLDSCHSACKSCICTLSIPAQCVCBBIBDFCYEPCKSSHSDDDNNN
Take B1: the binding entry was “no binding (tested: IC50 > 50 nM)”.
